Measured values: paper PMC11996839
Results are given in words; binding and its absence hold for the method and conditions named. In cells and extracts the contact can be indirect. Some results given as binding are weak or reduced against the parent protein; the word gives no strength.

Chains of the proteins cited; added tags and fusions are not shown.
UniProt Q99942: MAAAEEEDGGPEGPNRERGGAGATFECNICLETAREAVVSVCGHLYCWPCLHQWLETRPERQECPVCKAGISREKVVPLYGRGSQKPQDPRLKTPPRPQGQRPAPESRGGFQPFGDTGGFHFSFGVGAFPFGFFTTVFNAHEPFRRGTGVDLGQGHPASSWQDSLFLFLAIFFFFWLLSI
UniProt Q13200: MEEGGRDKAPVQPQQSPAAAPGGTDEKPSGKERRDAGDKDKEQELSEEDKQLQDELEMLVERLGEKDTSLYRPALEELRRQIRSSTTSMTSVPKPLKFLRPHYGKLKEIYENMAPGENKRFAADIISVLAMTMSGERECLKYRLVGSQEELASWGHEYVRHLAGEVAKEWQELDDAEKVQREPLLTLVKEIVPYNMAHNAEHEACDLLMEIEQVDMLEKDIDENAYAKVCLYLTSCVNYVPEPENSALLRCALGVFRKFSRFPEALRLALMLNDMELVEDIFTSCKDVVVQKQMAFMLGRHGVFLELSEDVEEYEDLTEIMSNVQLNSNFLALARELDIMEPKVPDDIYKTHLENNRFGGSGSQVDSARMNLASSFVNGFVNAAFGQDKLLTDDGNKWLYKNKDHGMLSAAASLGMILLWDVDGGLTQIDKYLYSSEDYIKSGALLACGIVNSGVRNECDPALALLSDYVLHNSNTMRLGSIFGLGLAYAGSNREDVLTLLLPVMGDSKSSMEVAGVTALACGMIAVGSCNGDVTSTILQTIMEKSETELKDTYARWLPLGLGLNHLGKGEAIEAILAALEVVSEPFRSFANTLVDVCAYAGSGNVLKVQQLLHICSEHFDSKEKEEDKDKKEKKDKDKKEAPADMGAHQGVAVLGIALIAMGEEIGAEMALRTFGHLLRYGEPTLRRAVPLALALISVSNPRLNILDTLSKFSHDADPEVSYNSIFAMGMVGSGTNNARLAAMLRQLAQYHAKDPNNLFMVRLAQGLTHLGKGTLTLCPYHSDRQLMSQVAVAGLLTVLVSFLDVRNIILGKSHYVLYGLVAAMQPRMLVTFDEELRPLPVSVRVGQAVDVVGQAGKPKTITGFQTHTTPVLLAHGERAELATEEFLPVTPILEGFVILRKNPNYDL

Target: Flag-tagged RNF5 (RING finger protein 5), wild type, expressed in HepG2 cells (UniProt Q99942)
Assay: co-IP

Question: Which binding does the source give for “endogenous proteasome 26S subunit non-ATPase 2 (PSMD2) of HepG2 cells (from UniProt Q13200 1-908)” here?
Answer: Its binding is “binds”.
